From patent publication US20200017592A1 come the findings set out here.

Amino acid sequences for entries named in this document (tags omitted). A change or cut given only in a name is not applied to a line headed by its entry.
UniProt Q9NPH3: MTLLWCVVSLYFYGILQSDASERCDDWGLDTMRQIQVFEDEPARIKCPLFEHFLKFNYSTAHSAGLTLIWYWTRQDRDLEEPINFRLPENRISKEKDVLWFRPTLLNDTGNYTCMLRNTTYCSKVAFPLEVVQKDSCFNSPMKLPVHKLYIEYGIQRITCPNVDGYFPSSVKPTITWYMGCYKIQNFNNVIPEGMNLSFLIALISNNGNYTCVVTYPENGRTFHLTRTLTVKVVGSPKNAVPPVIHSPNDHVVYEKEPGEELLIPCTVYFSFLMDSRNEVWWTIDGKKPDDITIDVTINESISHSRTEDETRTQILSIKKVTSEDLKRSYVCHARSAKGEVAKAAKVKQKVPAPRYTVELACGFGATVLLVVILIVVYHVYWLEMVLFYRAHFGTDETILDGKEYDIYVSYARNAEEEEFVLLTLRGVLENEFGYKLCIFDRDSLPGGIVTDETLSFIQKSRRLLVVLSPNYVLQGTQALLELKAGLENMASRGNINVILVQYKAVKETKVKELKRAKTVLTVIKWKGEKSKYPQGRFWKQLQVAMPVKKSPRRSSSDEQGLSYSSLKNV

No constants are given. Whether binding was seen depends on the method and setting. Some entries that bind do so weakly or less than the wild type. Tags and fused reporters may be left off the sequences shown.

The labels stand for the following.
T1: in-line fusion protein of human IL-36R extracellular domain and IL1RAcP extracellular domain expressed with mouse IgG2a Fc tag (human; mouse) (UniProt Q9HB29+Q9NPH3)
T1 sequence (looked up): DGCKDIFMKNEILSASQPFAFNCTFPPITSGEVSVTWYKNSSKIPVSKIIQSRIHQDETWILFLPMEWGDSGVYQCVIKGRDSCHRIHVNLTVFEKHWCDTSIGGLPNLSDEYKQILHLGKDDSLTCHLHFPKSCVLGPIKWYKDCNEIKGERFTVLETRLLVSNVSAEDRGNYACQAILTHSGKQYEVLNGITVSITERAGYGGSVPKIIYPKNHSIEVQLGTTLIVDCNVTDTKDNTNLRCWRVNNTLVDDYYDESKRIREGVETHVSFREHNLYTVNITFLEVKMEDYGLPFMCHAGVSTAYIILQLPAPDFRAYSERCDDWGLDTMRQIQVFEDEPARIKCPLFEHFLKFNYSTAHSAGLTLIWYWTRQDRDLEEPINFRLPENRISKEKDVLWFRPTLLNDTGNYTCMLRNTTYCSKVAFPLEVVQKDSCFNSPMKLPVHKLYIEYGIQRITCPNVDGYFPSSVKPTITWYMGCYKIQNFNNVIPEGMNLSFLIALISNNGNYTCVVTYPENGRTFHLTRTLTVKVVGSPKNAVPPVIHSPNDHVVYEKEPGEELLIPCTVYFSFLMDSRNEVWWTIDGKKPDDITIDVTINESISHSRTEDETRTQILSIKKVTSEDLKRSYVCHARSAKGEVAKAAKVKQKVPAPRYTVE

B1: H4H14699P2 (antibody, human IgG4 S228P, kappa, V domains shown)
VH: EVQLVESGGGLVQPGRSLRLSCAASGFTFDDYAIHWVRQAPGKGLEWVSVISWNSDIIGYADSVKGRFTVSRDNAKNSLYLQMNSLRTEDTALYYCAKGYNWNFFDYWGQGTLVTVSS
VL: EIVLTQSPATLSLSPGERATLSCRASQSVSSYLAWYQQKPGQAPRLLIYNAANRATDIPARFSGSGSGTDFTLTISSLEPEDFAVYYCQQRSNWPLTFGGGTKVEIKR
B2: H4H14700P2 (antibody, human IgG4 S228P, kappa, V domains shown)
VH: EVQLVESGGGLVQPGRSLRLSCAASGFTFDDYAMHWVRQTPGKGLEWVSVISWNSDVIAYSDSVKGRFTISRDNAKNSLYLQMNSLGTEDTALYYCAKGHNWNFFDYWGQGTLVTVSS
VL: EIVLTQSPATLSLSPGERATLSCRASQSVSSYLAWYQQKPGQAPRLLIYNVANRATDIPARFSGSGSGTDFTLTISGLEPEDFAVYFCQQRSNWPLTFGGGTKVEIKR
B3: H4H14708P2 (antibody, human IgG4 S228P, kappa, V domains shown)
VH: EVQLVESGGDLVQPGRSLRLSCAASGFTFDDYAMHWVRQAPGKGLEWVSVISWNSDVIAYSDSVKGRFTISRDNAKNSLYLQMNSLRTEDTALYYCTKGHKWSFFDYWGQGTLVTVSS
VL: EIVLTQSPATLSLSPGERATLSCRASQSISSYLAWYQQKPGQAPRLLIFNVANRATDIPARFSGSGSGTDFTLTISSLEPEDFAVYYCQQRSNWPLTFGGGTKVEIKR
B4: H4H14706P2 (antibody, human IgG4 S228P, kappa, V domains shown)
VH: EVQLVESGGGLVQPGRSLRLSCTASGFTFDDYAIHWVRQSPGKGLEWVSVISWNSDVIGYADSVKGRFTISRDNAKNSLYLQMNSLRAEDTALYYCAKGYNWNFFDYWGQGTLVTVSS
VL: EIVLTQSPATLSLSPGERATLSCRASQSVSSYLAWYQQKPGQAPRLLIYNAANRATDIPARFSGSGSGTDFTLTISSLEPEDFAVYYCQQRSNWPLTFGGGTKVEIKR
B5: H4H14709P (antibody, human IgG4 S228P, kappa, V domains shown)
VH: EVQLVESGGGLVQPGGSLRLSCAASGFTFSDYAMSWVRQAPGKGLEWVSGISGNGGDTYYGDFVKGRFTISRDNSKNTLYLQMNSLRGEDTAAYFCVIDLDYWGQGTLVTVSS
VL: DIQMTQSPSTLSASEGDRVTITCRASQSISSWLAWYQQKPGKAPRLLIYKASILGDGVPSRFSGSGSGTEFTLTISSLQPDDFATYYCHQYNSYLWTFGQGTKVEIKR
B6: H4H14728P (antibody, human IgG4 S228P, kappa, V domains shown)
VH: QVQLQESGPGLVKPSQTLSLTCTVSGGSISSADYYWSWIRQHPGKGLEWIGSIYYTGSTYYNPSLKSRLTISIDTSENQFSLKLTSLTAADTAVYYCASEEANWGSHFDSWGQGTLVTVSS
VL: DIQMTQSPSSLSASVGDRVTITCRASQSIDNFLNWYQQKPGKAPKLLIYAASSLQSGVPSRFSGSGSGTDFTLTISSLQPEDFASYYCQHSHSAHPITFGQGTRLEIKR
B7: H4H14731P (antibody, human IgG4 S228P, kappa, V domains shown)
VH: QLQLQESGPGLVKPSETLSLTCTVSGGSISSSNYYWGWIRQPPGKRLEWIGSIYYSGSTYYNPSLKTRVTISVDTSKNQFSLKLTSVTAADTAVYYCAREEAAALTHFDFWGQGTLVTVSS
VL: DIQMTQSPSSLSASVGDRVTITCRASQSISNYLNWYQQKPGKAPKLLIFAASSLQSGVPSRFSGSGSGTDFTLTISSLQPEDFATYYCQHSHSSHPITFGQGTRLEIKR
B8: H4H14757P (antibody, human IgG4 S228P, kappa, V domains shown)
VH: EVQLVESGGGLVQPGRSLRLSCTASGFTFDDYAMHWVRQAPGKGLEWVSGIRWNGGSIGYVDSVKGRFTISRDNAKKSLHLQMNSLKTEDTALYYCAKDIGDILTGFYGEYGMDVWGQGTTVTVSS
VL: DIQMTQSPSSLSASEGDRVTITCRASQSISSYLNWYQQKAGKAPNLLIYAASSLQSGVPSRFSGSGSGTEYTLTISSLQPEDFATYYCQQSYIIPYTFGQGTKLEIKR
B9: H4H14758P (antibody, human IgG4 S228P, kappa, V domains shown)
VH: EVQLVESGGGLVQPGRSLRLSCAASGFTFDDYAMHWVRQAPGKGLEWVSSVRWNGGIIGYADSVKGRFTISRDNAKNSLYLQMNSLRPEDTALYYCAKDIGDVLTGYYGEYGMDVWGQGTTVTVSS
VL: DIQMTQSPSSLSASVGDRVTIACRASQSITTYLNWYQQKPGKAPKLLIYAASSLQSGVPSRFSGSGSGTDFTLTISSLQPEDFATYYCQQSYISPYTFGQGTKLEIKR

The target in this assay is T1, in-line fusion protein of human IL-36R extracellular domain and IL1RAcP extracellular domain expressed with mouse IgG2a Fc tag (human; mouse). In words: SPR (Biacore 4000), 25°C and 37°C.
With B1, the binding entry was “binds”.
For the molecule B2, the binding entry was “binds”.
Consider B3, for which the binding entry is “binds”.
With B4, the binding entry is reported as “binds”.
As to B5, the binding result was “binds”.
The value for B6 was “binds”.
For the molecule B7, the binding entry is on record as “binds”.
The value for B8 was “binds”; that for B9 was “binds”.
